Measurements from the supplement of paper PMC3334620.
In all, about 33,000 sequences were measured (“E-score (-0.5 to 0.5)”: median about -0.015, highest 2% from about 0.3 on). This is one part of the list.

Each sequence was assayed against T1, Abf1 (UniProt P14164) (assay: PBM E-score (8-mer binding enrichment) (E-score (-0.5 to 0.5)); higher = stronger / more preferred TF binding). Conditions: protein concentration: 200 nM; construct: GST-full length.
T1 sequence: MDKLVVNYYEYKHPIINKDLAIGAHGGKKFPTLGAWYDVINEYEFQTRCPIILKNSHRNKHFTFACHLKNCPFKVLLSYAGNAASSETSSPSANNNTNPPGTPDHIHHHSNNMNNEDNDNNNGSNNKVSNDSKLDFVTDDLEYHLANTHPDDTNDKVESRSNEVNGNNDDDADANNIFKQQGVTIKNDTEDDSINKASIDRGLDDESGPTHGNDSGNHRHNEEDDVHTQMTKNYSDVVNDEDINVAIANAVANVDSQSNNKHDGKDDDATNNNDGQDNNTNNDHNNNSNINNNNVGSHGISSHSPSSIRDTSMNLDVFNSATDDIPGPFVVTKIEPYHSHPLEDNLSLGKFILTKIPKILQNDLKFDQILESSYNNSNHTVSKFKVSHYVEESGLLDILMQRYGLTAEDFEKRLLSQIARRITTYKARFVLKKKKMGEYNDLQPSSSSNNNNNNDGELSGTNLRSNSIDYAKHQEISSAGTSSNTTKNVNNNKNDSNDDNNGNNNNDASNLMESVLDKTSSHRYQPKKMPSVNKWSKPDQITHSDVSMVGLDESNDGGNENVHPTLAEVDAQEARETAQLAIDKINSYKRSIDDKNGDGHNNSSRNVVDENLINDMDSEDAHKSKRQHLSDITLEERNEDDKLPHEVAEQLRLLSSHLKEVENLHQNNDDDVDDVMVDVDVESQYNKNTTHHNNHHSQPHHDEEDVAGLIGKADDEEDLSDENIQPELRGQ
Protocol: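 Universal 'all 10-mer' protein binding microarrays (Agilent AMADID 015681) probed with GST-tagged S. cerevisiae TFs (full-length or DBD) made by in vitro transcription/translation (PURExpress), about 100-200 nM. Bound TF was detected with fluorescent anti-GST. Each ungapped 8-mer (which stands for itself and its reverse complement) is scored by the PBM enrichment score (E-score), a modified Wilcoxon-Mann-Whitney statistic from -0.5 to +0.5, computed with the Universal PBM Analysis Suite. Scale: above 0.35 generally sequence-specific binding.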

Going from CCTGTGCC to GATAGCGA, the “PBM E-score” value rises from -0.0805 to 0.226.

Compared with CCAGCTAG, AGAAGAAG is lower in “PBM E-score” value: 0.0103 for the first, -0.0116 for the second.

First: CTCAGGCA
Second: GGTGCCCA
The “PBM E-score” value of the first is lower: -0.121 for the first, 0.00407 for the second.

Compared with ATCAACGC, AGTACGTG is higher in “PBM E-score” value: 0.0823 for the first, 0.0865 for the second.

Compared with ATACAGAG, GCCGCAAC is higher in “PBM E-score” value: -0.18 for the first, 0.0158 for the second.

Going from CTTGCAAC to AAAATCCC, the “PBM E-score” value falls from 0.0224 to -0.0966.

Compared with GCTGACAA, GTACTAGA is higher in “PBM E-score” value: 0.0133 for the first, 0.111 for the second.

Going from AAGCCTGA to ACTTAGTA, the “PBM E-score” value rises from -0.117 to 0.216.

Going from GAACCTAC to ACATCGGG, the “PBM E-score” value rises from -0.00821 to 0.0963.

Going from ACTTACAG to CGCGGTCA, the “PBM E-score” value falls from -0.0364 to -0.0568.

First: AGCCCCCC
Second: ACGGCAAA
The “PBM E-score” value of the first is lower: -0.459 for the first, 0.156 for the second.

First: CAATATCG
Second: ACCCTTTA
The “PBM E-score” value of the first is higher: 0.218 for the first, 0.0562 for the second.

Compared with CGGAGCCA, CCATTACA is higher in “PBM E-score” value: -0.236 for the first, 0.188 for the second.

Compared with GAGGGCAC, ATTATAAG is higher in “PBM E-score” value: -0.218 for the first, 0.0118 for the second.

Going from GCTTAGGA to GTCCTTGA, the “PBM E-score” value rises from -0.124 to 0.158.

First: AAAAGCGA
Second: CATCGTGC
The “PBM E-score” value of the first is lower: 0.206 for the first, 0.314 for the second.

First: CCTATGCG
Second: AACCGTCG
The “PBM E-score” value of the first is lower: -0.155 for the first, 0.298 for the second.

Going from ATCCCGCA to GCATCTTA, the “PBM E-score” value rises from -0.147 to 0.11.

First: AACCCCCC
Second: ATGCCCCC
The “PBM E-score” value of the first is lower: -0.421 for the first, -0.306 for the second.

Going from CGCAGAGC to CTAACTGC, the “PBM E-score” value rises from -0.134 to -0.046.

First: ACCTACAG
Second: CTCCGTGA
The “PBM E-score” value of the first is higher: 0.172 for the first, 0.0295 for the second.

Going from ACATACAG to CATCAAGG, the “PBM E-score” value falls from -0.0843 to -0.137.

First: GTACTAAC
Second: CCAATTAC
The “PBM E-score” value of the first is higher: 0.048 for the first, 0.0466 for the second.

Compared with AATGGTAG, GACCACAA is lower in “PBM E-score” value: 0.225 for the first, -0.0916 for the second.

Compared with GTCGCTGA, CCGAAAAC is lower in “PBM E-score” value: 0.104 for the first, -0.0692 for the second.

Going from AAGACTGA to GAGACTAC, the “PBM E-score” value rises from -0.159 to -0.0609.

Going from AAATGCTG to AGCGATGG, the “PBM E-score” value rises from 0.0213 to 0.0661.

Compared with GAATAAGA, CTGGCCGC is lower in “PBM E-score” value: 0.0625 for the first, -0.251 for the second.

First: CTCAGTAA
Second: CCTGAGTA
The “PBM E-score” value of the first is higher: -0.226 for the first, -0.238 for the second.

Compared with AATTAAGC, CTTGGTGA is lower in “PBM E-score” value: 0.111 for the first, -0.0225 for the second.

Going from TAGAATAA to CATAGCCC, the “PBM E-score” value falls from 0.114 to -0.332.

Going from ATAAACTG to CTTTAACC, the “PBM E-score” value falls from 0.0304 to -0.275.

Compared with AACTATGC, ACGTTGAG is lower in “PBM E-score” value: 0.203 for the first, -0.013 for the second.

First: AAGCCAAA
Second: CCGGAAGG
The “PBM E-score” value of the first is higher: 0.00729 for the first, -0.297 for the second.

Going from CATCTGGC to AAATTATA, the “PBM E-score” value rises from 0.0534 to 0.197.

Compared with TCATTGAA, GAGCGGGA is lower in “PBM E-score” value: 0.164 for the first, -0.0765 for the second.

Going from CTGGAATC to CATTTCGA, the “PBM E-score” value rises from -0.00545 to 0.133.

Going from CACAGGCC to GGGCACAC, the “PBM E-score” value falls from -0.0982 to -0.123.

First: ATTCCCGA
Second: ACGTTTAC
The “PBM E-score” value of the first is higher: -0.0981 for the first, -0.121 for the second.

First: CATACACA
Second: AATTAAAA
The “PBM E-score” value of the first is lower: -0.0659 for the first, 0.00186 for the second.

First: CGAATGGA
Second: TGTTTTAA
The “PBM E-score” value of the first is lower: 0.0823 for the first, 0.167 for the second.

Compared with CCTCGGTC, CATTAGAG is higher in “PBM E-score” value: -0.201 for the first, 0.0163 for the second.

Compared with CTTAGAAC, AGACTCAA is lower in “PBM E-score” value: 0.0471 for the first, -0.25 for the second.

First: CTAAAACA
Second: AATGAATG
The “PBM E-score” value of the first is lower: -0.052 for the first, 0.215 for the second.

Compared with TACACTCA, GGGGCGGA is lower in “PBM E-score” value: 0.0706 for the first, -0.31 for the second.

Compared with ATGTCGAA, CATCCGGA is lower in “PBM E-score” value: 0.00217 for the first, -0.148 for the second.

Going from ACCCACCA to GCTCGTGA, the “PBM E-score” value rises from -0.174 to 0.0759.

Going from ACCACGAT to CTCTAGTA, the “PBM E-score” value falls from 0.248 to 0.00811.

First: AATTCTTC
Second: AGTAGTCC
The “PBM E-score” value of the first is lower: -0.00622 for the first, 0.0148 for the second.

First: CATTCTGG
Second: CTGAAGGA
The “PBM E-score” value of the first is higher: -0.0199 for the first, -0.118 for the second.

Compared with AAGTGGCG, CTCTAACA is higher in “PBM E-score” value: -0.0322 for the first, 0.0368 for the second.

Compared with CGATATGC, CATTACAC is lower in “PBM E-score” value: 0.214 for the first, 0.0501 for the second.

Going from GGTTCTAA to CAGTTTGG, the “PBM E-score” value falls from 0.174 to -0.166.

Compared with GCGTGAGC, GTCCACCA is lower in “PBM E-score” value: -0.00153 for the first, -0.0958 for the second.

Compared with CCTCTTTC, CCCTTGAA is higher in “PBM E-score” value: -0.314 for the first, -0.102 for the second.

Compared with ATCCACCG, ACCGCTAT is lower in “PBM E-score” value: 0.168 for the first, -0.167 for the second.

Compared with TAAGGAGA, CGTGGTAA is higher in “PBM E-score” value: -0.199 for the first, 0.149 for the second.

Compared with ATGTTTCG, ATTTGTGC is lower in “PBM E-score” value: 0.0869 for the first, -0.0752 for the second.

Going from CCACCTGG to GCAATGCA, the “PBM E-score” value rises from -0.305 to -0.101.

Compared with AGAGCCTG, AGTCAGAC is higher in “PBM E-score” value: -0.203 for the first, -0.0641 for the second.

Going from GAAAATGC to CCTATCAG, the “PBM E-score” value falls from -0.00051 to -0.22.

Going from CAGATACC to AGCCGATC, the “PBM E-score” value falls from -0.026 to -0.159.

First: ATCAACGG
Second: ACTGGTTG
The “PBM E-score” value of the first is higher: 0.288 for the first, -0.0643 for the second.

Compared with GCCGGGCA, AGAGATAG is higher in “PBM E-score” value: -0.283 for the first, 0.037 for the second.

First: ATACTTGA
Second: GCCAGCGC
The “PBM E-score” value of the first is higher: -0.0426 for the first, -0.278 for the second.

First: AACCCCTA
Second: TCTAAGAA
The “PBM E-score” value of the first is lower: -0.235 for the first, 0.155 for the second.

First: ACAATTAC
Second: AGACCGCG
The “PBM E-score” value of the first is higher: 0.13 for the first, -0.0334 for the second.

Going from ACTCGTAG to CAGACTGC, the “PBM E-score” value falls from 0.16 to -0.188.

Compared with GTGAATGA, AAGGTACG is lower in “PBM E-score” value: 0.15 for the first, 0.105 for the second.

Going from ACTTTGGG to AATACGAC, the “PBM E-score” value rises from -0.11 to 0.278.

First: AACATTCA
Second: GGCGGCCC
The “PBM E-score” value of the first is higher: -0.0877 for the first, -0.231 for the second.

Going from CCATTAGG to GTCGTTGA, the “PBM E-score” value rises from -0.215 to 0.327.

First: CGAACGAG
Second: CGAGAGAG
The “PBM E-score” value of the first is higher: 0.112 for the first, -0.124 for the second.

Compared with CCGGATAC, AATACATC is lower in “PBM E-score” value: -0.0452 for the first, -0.0864 for the second.

Compared with GGCCATAA, AGCGGCTC is higher in “PBM E-score” value: -0.196 for the first, -0.159 for the second.

Going from AATCTGGA to ATACCCCA, the “PBM E-score” value rises from -0.14 to 0.0583.

First: CTTTCTAA
Second: ACTTACTA
The “PBM E-score” value of the first is lower: 0.0834 for the first, 0.0901 for the second.

Going from CGACTCAG to AAATCCCT, the “PBM E-score” value falls from -0.0467 to -0.162.

First: ACCCCACC
Second: CAAGATCA
The “PBM E-score” value of the first is lower: 0.125 for the first, 0.16 for the second.

Compared with AGGATCAA, ATAATCTG is lower in “PBM E-score” value: 0.0888 for the first, -0.105 for the second.

Going from CCTATGAA to GGATACAA, the “PBM E-score” value rises from -0.165 to 0.161.

Compared with CAGCCCCA, GCAAGGTA is higher in “PBM E-score” value: -0.178 for the first, -0.0878 for the second.

Compared with CAAAGGCG, ATTGTGAA is higher in “PBM E-score” value: 0.0207 for the first, 0.0833 for the second.

Compared with AGACATTA, GAGTCTCA is lower in “PBM E-score” value: -0.0164 for the first, -0.156 for the second.

First: TGGGGACA
Second: CGGACCGA
The “PBM E-score” value of the first is lower: -0.172 for the first, -0.0781 for the second.

Going from CCTTAAAC to CATTATTA, the “PBM E-score” value rises from -0.0102 to 0.247.
